# Source: patent US7625883B1, “Glycerophosphoinositol derivatives as modulators of cytosolic A2 phospholipase” (I.R.B. Istituto di Ricerche Biotechnologiche S.R.L., priority 2000, dated 2009)
# At least one structure is not confirmed: it was looked up by name or label, or the drawing left a doubt.
# Tested on: Swiss 3T3 fibroblasts
# Assay: bombesin-dependent release of [3H]-arachidonic acid in Swiss 3T3 fibroblasts
# Format: cell-based
# Settings: stimulus alone: bombesin 10 minutes, no test compound
# Description: cPLA2-dependent mechanism, for example ATP, mastoparan, bombesin;
# The cells are initially incubated with various concentrations of the compound under examination for 60 minutes or with a predefined concentration of 100 μM for various time intervals (15-180 minutes), washed two times with HBSS (Hank's Balanced Salt Solution, in the presence of Ca2+ and Mg2+ ions) added with 10 mM Hepes and 0.2% BSA—in absence of free fatty acids, pH 7.4 and stimulated with 100 μM ATP in the described buffer for 10 minutes at 37° C. The supernatant was collected in scintillation cuvettes for determination. The results are expressed as a percentage of the total release of [3H]-arachidonic acid.
# Preloaded cells were pre-incubated with various concentrations of the Example 4a for 60 minutes and then stimulated with bombesin for 10 minutes. The results are expressed as the mean±SE of two points in 3 separate experiments.
smiles,measurement,value
"CSCC[C@H](NC(=O)[C@H](CC(C)C)NC(=O)[C@H](Cc1cnc[nH]1)NC(=O)CNC(=O)[C@@H](NC(=O)[C@H](C)NC(=O)[C@H](Cc1c[nH]c2ccccc12)NC(=O)[C@H](CCC(N)=O)NC(=O)[C@H](CC(N)=O)NC(=O)CNC(=O)[C@H](CC(C)C)NC(=O)[C@H](CCCN=C(N)N)NC(=O)[C@H](CCC(N)=O)NC(=O)[C@@H]1CCC(=O)N1)C(C)C)C(N)=O [Bombesin, reference compound]",Release of [^3H]-arachidonic acid % basal,170 ± 14 % basal
